Patent publication US20130267422A1, “COMPOSITION FOR CONTROLLING PLANT DISEASES COMPRISING 3-PENTANOL AS EFFECTIVE COMPONENT” (Korea Research Institute Of Bioscience And Biotechnology, priority 2010, published 2013)

System: pepper
Test: Growth and yield of pepper under field conditions
Type: in vivo
Settings: harvest period

With `CCC(O)CC` [3-pentanol] the “yield compared with BTH” value (versus 0.5 mM BTH) was “higher than that of BTH”, the plant growth (versus control group) was “no difference” and the yield (versus control group) was “lower than the control group”.
